Assay results reported in the supplement of paper PMC10849652.
The list shows a part of the results.

Protein sequences, listed by entry. Tags and fused reporters are not part of them. Lines headed by an entry give the natural chain unless they say otherwise; changes in a name come on top.
UniProt C9J7I0: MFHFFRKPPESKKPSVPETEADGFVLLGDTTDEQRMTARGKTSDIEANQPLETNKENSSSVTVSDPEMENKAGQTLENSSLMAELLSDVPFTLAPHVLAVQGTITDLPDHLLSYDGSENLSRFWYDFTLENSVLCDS
UniProt Q9Y3C8: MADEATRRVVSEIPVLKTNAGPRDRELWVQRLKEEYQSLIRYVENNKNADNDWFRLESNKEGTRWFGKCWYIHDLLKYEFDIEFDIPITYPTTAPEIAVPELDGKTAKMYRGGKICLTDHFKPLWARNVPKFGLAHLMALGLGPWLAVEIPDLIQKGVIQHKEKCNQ
UniProt Q6ZU65, whole entry, looked up: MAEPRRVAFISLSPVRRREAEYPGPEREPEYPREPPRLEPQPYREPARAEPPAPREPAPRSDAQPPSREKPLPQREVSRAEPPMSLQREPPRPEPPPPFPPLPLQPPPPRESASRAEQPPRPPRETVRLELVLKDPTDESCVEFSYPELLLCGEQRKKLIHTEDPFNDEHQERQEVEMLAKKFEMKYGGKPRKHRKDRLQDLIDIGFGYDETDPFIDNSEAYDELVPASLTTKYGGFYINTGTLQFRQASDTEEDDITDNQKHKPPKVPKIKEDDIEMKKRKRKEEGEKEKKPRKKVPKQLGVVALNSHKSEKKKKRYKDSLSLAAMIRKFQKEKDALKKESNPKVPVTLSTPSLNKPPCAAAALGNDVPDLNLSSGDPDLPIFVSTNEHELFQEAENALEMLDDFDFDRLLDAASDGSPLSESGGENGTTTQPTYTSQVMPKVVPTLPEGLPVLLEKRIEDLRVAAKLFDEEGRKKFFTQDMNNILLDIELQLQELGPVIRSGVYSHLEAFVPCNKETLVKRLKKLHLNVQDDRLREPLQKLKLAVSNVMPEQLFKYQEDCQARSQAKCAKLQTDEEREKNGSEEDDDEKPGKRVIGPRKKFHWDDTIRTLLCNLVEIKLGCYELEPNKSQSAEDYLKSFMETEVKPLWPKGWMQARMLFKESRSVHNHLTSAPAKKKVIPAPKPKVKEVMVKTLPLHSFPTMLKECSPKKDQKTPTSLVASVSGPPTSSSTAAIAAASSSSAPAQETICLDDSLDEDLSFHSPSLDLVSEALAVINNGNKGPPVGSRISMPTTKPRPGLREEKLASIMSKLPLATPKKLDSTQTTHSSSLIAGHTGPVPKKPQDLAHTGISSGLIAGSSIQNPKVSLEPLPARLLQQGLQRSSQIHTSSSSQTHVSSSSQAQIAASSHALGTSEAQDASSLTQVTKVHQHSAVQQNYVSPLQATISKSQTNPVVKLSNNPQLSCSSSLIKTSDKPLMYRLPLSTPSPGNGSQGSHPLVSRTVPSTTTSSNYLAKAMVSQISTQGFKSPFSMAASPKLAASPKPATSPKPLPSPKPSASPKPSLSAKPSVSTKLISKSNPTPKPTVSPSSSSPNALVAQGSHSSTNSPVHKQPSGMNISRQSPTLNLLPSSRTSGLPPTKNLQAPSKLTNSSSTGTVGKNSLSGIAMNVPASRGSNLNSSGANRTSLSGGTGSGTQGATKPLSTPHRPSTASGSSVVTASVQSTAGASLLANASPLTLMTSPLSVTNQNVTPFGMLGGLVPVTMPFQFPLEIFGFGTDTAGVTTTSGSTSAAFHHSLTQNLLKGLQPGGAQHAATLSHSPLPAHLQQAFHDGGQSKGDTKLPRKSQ
UniProt P17480: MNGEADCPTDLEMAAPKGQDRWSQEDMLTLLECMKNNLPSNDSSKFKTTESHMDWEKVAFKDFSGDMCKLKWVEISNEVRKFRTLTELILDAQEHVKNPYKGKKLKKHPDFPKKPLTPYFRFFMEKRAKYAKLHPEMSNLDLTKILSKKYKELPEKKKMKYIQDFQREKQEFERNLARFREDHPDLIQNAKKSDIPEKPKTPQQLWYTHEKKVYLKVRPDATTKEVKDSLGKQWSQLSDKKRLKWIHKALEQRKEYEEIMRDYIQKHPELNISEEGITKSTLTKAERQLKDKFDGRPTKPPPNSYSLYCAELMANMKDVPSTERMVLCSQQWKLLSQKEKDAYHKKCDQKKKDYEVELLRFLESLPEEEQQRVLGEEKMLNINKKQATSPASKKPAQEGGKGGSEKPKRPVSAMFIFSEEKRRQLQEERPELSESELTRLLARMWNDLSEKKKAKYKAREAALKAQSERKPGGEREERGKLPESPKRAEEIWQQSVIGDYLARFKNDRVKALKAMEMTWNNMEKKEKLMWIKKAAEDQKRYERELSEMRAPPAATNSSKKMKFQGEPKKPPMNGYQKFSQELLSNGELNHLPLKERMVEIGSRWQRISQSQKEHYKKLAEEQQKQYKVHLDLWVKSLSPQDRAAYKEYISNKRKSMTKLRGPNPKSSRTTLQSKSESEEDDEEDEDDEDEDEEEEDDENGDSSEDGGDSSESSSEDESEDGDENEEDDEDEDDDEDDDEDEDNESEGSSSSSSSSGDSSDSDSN
UniProt P51784: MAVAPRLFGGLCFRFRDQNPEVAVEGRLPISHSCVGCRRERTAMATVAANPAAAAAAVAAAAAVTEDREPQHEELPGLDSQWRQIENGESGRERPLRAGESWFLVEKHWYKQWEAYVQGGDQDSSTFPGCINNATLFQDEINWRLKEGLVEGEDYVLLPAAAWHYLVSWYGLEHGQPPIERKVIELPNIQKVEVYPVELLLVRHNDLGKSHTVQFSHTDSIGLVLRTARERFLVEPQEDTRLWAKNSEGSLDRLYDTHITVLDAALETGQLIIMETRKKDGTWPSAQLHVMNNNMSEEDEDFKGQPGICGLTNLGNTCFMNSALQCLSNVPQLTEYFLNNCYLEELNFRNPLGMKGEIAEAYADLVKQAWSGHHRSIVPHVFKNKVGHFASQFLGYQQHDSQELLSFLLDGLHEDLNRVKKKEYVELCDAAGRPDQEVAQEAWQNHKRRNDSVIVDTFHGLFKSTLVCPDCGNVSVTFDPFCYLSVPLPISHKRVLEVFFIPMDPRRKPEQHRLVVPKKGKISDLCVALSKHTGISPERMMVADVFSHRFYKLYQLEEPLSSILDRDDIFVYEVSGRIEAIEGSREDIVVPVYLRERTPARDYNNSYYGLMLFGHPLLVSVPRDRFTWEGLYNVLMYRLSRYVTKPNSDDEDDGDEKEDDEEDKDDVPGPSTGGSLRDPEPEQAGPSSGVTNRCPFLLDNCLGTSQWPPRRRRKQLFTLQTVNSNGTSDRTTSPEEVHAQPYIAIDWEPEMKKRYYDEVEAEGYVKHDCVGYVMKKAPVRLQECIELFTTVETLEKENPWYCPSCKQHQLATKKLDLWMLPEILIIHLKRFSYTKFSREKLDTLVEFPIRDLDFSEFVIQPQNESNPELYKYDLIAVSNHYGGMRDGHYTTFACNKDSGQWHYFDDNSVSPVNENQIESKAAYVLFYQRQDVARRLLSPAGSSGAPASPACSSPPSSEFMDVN
UniProt Q9H1C4: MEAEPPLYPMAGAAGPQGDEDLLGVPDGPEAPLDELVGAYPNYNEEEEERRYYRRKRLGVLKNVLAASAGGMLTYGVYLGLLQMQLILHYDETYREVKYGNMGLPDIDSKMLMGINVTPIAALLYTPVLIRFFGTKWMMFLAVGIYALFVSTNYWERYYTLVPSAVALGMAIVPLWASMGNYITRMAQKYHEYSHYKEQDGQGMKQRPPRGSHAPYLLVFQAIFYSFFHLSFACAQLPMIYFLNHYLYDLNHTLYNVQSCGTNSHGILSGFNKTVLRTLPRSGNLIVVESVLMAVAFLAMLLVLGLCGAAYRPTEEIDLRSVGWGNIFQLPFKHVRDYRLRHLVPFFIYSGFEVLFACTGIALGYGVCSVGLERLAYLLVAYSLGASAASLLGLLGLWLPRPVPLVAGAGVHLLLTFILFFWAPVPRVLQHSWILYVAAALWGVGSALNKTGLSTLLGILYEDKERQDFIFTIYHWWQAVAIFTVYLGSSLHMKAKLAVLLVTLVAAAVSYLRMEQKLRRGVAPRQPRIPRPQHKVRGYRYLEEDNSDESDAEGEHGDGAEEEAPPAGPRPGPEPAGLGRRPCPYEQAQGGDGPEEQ
UniProt Q14146: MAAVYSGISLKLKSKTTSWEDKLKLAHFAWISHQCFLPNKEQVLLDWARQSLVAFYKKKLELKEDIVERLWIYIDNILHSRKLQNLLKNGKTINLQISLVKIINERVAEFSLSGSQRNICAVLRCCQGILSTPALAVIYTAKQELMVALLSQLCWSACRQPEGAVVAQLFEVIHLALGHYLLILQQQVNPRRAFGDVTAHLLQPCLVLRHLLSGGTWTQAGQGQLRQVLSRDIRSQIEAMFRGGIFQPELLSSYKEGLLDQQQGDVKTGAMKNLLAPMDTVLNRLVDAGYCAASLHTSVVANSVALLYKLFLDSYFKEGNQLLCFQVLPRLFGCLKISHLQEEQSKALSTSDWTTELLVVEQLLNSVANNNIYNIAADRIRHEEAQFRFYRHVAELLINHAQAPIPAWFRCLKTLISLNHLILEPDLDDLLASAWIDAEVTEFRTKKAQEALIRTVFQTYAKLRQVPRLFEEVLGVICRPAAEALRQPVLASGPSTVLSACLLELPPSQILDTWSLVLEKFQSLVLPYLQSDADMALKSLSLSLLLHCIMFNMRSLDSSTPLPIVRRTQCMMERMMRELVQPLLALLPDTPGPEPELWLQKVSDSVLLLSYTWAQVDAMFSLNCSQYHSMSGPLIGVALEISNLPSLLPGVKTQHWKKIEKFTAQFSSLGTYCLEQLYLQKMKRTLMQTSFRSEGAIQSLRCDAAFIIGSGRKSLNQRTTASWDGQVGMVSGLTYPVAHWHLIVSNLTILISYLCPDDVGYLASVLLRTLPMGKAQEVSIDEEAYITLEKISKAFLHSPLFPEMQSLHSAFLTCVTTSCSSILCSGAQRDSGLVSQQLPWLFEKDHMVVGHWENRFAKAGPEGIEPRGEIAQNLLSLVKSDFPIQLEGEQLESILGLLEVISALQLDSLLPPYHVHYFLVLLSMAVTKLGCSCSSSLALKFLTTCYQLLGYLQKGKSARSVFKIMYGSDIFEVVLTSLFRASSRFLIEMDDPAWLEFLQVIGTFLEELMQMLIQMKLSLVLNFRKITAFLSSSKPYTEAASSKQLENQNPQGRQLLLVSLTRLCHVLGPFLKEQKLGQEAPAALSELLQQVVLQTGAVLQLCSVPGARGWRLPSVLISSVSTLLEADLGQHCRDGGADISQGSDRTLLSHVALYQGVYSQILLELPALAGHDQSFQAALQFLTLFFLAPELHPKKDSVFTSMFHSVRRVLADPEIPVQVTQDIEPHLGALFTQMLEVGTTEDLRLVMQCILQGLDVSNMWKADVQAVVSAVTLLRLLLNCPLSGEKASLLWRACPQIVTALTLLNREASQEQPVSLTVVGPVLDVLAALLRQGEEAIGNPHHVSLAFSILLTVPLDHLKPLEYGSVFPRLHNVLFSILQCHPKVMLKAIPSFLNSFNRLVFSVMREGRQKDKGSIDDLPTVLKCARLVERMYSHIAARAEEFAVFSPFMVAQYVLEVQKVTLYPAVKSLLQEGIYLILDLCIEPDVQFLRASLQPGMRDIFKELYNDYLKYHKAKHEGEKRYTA
UniProt Q99536: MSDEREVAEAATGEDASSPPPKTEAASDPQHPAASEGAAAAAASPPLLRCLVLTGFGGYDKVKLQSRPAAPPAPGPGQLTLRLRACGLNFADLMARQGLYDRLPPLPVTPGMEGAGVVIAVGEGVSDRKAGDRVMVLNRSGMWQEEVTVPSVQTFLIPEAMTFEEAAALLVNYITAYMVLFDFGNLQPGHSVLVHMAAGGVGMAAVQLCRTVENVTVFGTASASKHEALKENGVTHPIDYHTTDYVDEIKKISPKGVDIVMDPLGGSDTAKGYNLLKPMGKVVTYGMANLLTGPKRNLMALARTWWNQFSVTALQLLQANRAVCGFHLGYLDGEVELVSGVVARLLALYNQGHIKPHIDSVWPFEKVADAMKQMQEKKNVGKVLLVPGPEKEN
UniProt Q96BW1: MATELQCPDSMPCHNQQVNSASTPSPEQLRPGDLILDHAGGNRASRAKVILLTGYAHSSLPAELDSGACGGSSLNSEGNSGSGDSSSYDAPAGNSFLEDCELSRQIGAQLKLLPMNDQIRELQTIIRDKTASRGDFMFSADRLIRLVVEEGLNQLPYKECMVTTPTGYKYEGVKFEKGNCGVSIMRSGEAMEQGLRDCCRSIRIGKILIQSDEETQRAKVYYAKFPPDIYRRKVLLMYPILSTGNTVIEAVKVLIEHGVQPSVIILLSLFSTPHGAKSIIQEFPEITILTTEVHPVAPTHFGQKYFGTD
UniProt P06132: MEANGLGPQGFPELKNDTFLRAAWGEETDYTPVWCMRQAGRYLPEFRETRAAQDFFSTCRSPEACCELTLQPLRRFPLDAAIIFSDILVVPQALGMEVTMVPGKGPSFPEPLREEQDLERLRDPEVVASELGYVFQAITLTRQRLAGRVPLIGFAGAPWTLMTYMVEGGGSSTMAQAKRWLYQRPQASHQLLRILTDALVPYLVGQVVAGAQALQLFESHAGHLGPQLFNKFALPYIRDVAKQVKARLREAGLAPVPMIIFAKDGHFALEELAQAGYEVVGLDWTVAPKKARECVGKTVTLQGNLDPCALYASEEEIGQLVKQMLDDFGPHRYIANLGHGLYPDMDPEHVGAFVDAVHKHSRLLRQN

What follows are targets tested with c1ccc([C@@H]2C[C@H]2NC2CCNCC2)cc1 (assay: log2 fold change, soluble protein after heating vs DMSO (PISA); higher = thermal stabilisation; K562 cells, 10 uM, 30 min; active = over 0.2 and 3.5 SD of the protein, either way, in both replicates (recomputed)).
How it was run: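 Thermal stability values are relative to control samples and come from duplicates. They are expressed as log2 fold changes. For measurement, K562 cells (2×10^6 cells/mL) received 10 μM compound for 30 min, and aliquots were heated for 3 min over 48°C-58°C, pooled, and extracted at 4°C in PBS with 0.5% NP-40. Soluble protein, the supernatant after 21,000xg for 90 min, was quantified by TMTpro 16plex LC-MS/MS with equalised channel sums.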

Target | log2 fold change
USP12 (UniProt O75317) | inactive: 0.012
UBXN1 (UniProt Q04323) | inactive: 0.002
UMAD1 (UniProt C9J7I0) | inactive: 0.087
USP20 (UniProt Q9Y2K6) | inactive: -0.022
UBQLN3 (UniProt Q9H347) | inactive: 0.128
UQCC3 (UniProt Q6UW78) | inactive: 0.238
UFC1 (UniProt Q9Y3C8) | inactive: 0.037
UBN2 (UniProt Q6ZU65) | inactive: 0.015
UBTF (UniProt P17480) | inactive: -0.023
USP11 (UniProt P51784) | inactive: -0.025
USB1 (UniProt Q9BQ65) | inactive: 0
ULBP1 (UniProt Q9BZM6) | inactive: -0.038
UNC93B1 (UniProt Q9H1C4) | inactive: 0.109
VAV1 (UniProt P15498) | inactive: -0.086
USP27X (UniProt A6NNY8) | inactive: 0.103
USP6NL isoform 2 (UniProt Q92738) | inactive: 0.092
UBR1 (UniProt Q8IWV7) | inactive: -0.059
URB2 (UniProt Q14146) | inactive: -0.099
UTP23 (UniProt Q9BRU9) | inactive: -0.131
VAT1 (UniProt Q99536) | inactive: 0.017
UPRT (UniProt Q96BW1) | inactive: -0.145
VAMP3 (UniProt Q15836) | inactive: 0
USP32 (UniProt Q8NFA0) | inactive: -0.046
UROD (UniProt P06132) | inactive: -0.016
UBE3B (UniProt Q7Z3V4) | inactive: 0.172
UNG (UniProt P13051) | inactive: 0.074
ULBP2 (UniProt Q9BZM5) | inactive: 0.082

Single values from the results shown.
UBQLN3 (UniProt Q9H347) | log2 fold change: inactive: 0.128
UBR1 (UniProt Q8IWV7) | log2 fold change: inactive: -0.059
